Measurements: publication PMC4476799, “Englerin A Agonizes the TRPC4/C5 Cation Channels to Inhibit Tumor Cell Line Proliferation” (PLoS ONE, 2015)
This continues a long series; more values of the same kind are listed elsewhere.

Tested on: cancer cell lines from the cancer cell line encyclopedia (CCLE)
Assay: Cell line profiling (CLiP) proliferation experiment
Type: cell-based
Design: ACTIVITY_AREA: scale not given here; AMAX: unit not given here
Description: Compound profiling experiment and data analysis was performed as previously described. Data was imported and plotted using the Tibco Spotfire DXP application. Lines were categorized as sensitive, intermediate and refractory as follows: Amax<-40 & Inflection Point <2 ~ Sensitive, Amax>-20 & Inflection Point >10 ~ Refractory, all else were called Intermediate. Cancer Cell line HG-U133 Plus 2 data was processed and normalized as described. […] Five sets of refractory cell lines were generated from the pool of refractory cell lines trying to match the lineage composition of the set of sensitive cell lines. The limma package was used as previously described to perform the statistical comparison.

[1] = Ki-JK (haematopoietic_and_lymphoid_tissue)
[2] = L-363 (haematopoietic_and_lymphoid_tissue)
[3] = LAMA-84 (haematopoietic_and_lymphoid_tissue)
[4] = LN-229 (central_nervous_system)
[5] = LP-1 (haematopoietic_and_lymphoid_tissue)
[6] = Loucy (haematopoietic_and_lymphoid_tissue)
[7] = MAVER-1 (haematopoietic_and_lymphoid_tissue)
[8] = MC116 (haematopoietic_and_lymphoid_tissue)
[9] = MEC-1 (haematopoietic_and_lymphoid_tissue)
[10] = MEG-01 (haematopoietic_and_lymphoid_tissue)
[11] = MOLM-13 (haematopoietic_and_lymphoid_tissue)
[12] = NCI-H82, lung, small_cell_carcinoma

## CC(C)[C@@]12C[C@@H](O)[C@@](C)(O1)[C@@H]1CC[C@@H](C)[C@H]1[C@@H]2OC(=O)/C=C/c1ccccc1 [Englerin B]
[1]
  ACTIVITY_AREA: 33.09
  AMAX: -86.88
  RESPONSE: INTERMEDIATE
L3.3 (pancreas)
  ACTIVITY_AREA: 19.82
  AMAX: -1.42
  RESPONSE: REFRACTORY
[2]
  ACTIVITY_AREA: 30.79
  AMAX: -76.39
  RESPONSE: INTERMEDIATE
[3]
  ACTIVITY_AREA: 21.65
  AMAX: -47.02
  RESPONSE: INTERMEDIATE
LAMA-84 cells
  ACTIVITY_AREA: 21.65
  AMAX: -47.02
  RESPONSE: INTERMEDIATE
LC-1/sq-SF (lung)
  ACTIVITY_AREA: 17.23
  AMAX: -27.78
  RESPONSE: INTERMEDIATE
LCLC-97TM1 (lung)
  ACTIVITY_AREA: 12.1
  AMAX: -48.44
  RESPONSE: INTERMEDIATE
LCLC-97TM1 cells
  ACTIVITY_AREA: 12.1
  AMAX: -48.44
  RESPONSE: INTERMEDIATE
LCLC-103H (lung)
  ACTIVITY_AREA: 35.85
  AMAX: -43.37
  RESPONSE: INTERMEDIATE
LCLC-103H cells
  ACTIVITY_AREA: 35.85
  AMAX: -43.37
  RESPONSE: INTERMEDIATE
LK-2 (lung)
  ACTIVITY_AREA: 22.45
  AMAX: 0.44
  RESPONSE: REFRACTORY
LMSU (stomach)
  ACTIVITY_AREA: 54.83
  AMAX: -64.58
  RESPONSE: INTERMEDIATE
LN-18 (central_nervous_system)
  ACTIVITY_AREA: 54
  AMAX: -84.56
  RESPONSE: INTERMEDIATE
LN-18 cells
  ACTIVITY_AREA: 54
  AMAX: -84.56
  RESPONSE: INTERMEDIATE
[4]
  ACTIVITY_AREA: 26.55
  AMAX: -27.43
  RESPONSE: INTERMEDIATE
LOX IMVI (skin)
  ACTIVITY_AREA: 48.52
  AMAX: -28.32
  RESPONSE: INTERMEDIATE
LOX IMVI cells
  ACTIVITY_AREA: 48.52
  AMAX: -28.32
  RESPONSE: INTERMEDIATE
[5]
  ACTIVITY_AREA: 34.18
  AMAX: -71.29
  RESPONSE: INTERMEDIATE
LP-1 cells
  ACTIVITY_AREA: 34.18
  AMAX: -71.29
  RESPONSE: INTERMEDIATE
LP-6 (soft_tissue)
  ACTIVITY_AREA: 80.63
  AMAX: -44.12
  RESPONSE: INTERMEDIATE
LS 180 (large_intestine)
  ACTIVITY_AREA: 24.89
  AMAX: -35.97
  RESPONSE: INTERMEDIATE
LS 180 cells
  ACTIVITY_AREA: 24.89
  AMAX: -35.97
  RESPONSE: INTERMEDIATE
LS411N (large_intestine)
  ACTIVITY_AREA: 74.86
  AMAX: -68.27
  RESPONSE: INTERMEDIATE
LU65 (lung)
  ACTIVITY_AREA: 30.29
  AMAX: -10.51
  RESPONSE: REFRACTORY
LU99 (lung)
  ACTIVITY_AREA: 20.18
  AMAX: -51.2
  RESPONSE: INTERMEDIATE
LXF-289 (lung)
  ACTIVITY_AREA: 29.24
  AMAX: -45.81
  RESPONSE: INTERMEDIATE
Li-7 (liver)
  ACTIVITY_AREA: 9.97
  AMAX: -40.35
  RESPONSE: INTERMEDIATE
LoVo (large_intestine)
  ACTIVITY_AREA: 22.43
  AMAX: -43.58
  RESPONSE: INTERMEDIATE
[6]
  ACTIVITY_AREA: 40.46
  AMAX: -77.08
  RESPONSE: INTERMEDIATE
[7]
  ACTIVITY_AREA: 70.86
  AMAX: -71.85
  RESPONSE: INTERMEDIATE
MB 157 (breast)
  ACTIVITY_AREA: 43.72
  AMAX: -47.98
  RESPONSE: INTERMEDIATE
[8]
  ACTIVITY_AREA: 38.31
  AMAX: -98.12
  RESPONSE: INTERMEDIATE
MCAS (ovary)
  ACTIVITY_AREA: 25.17
  AMAX: -38.75
  RESPONSE: INTERMEDIATE
MCF7 (breast)
  ACTIVITY_AREA: 67.04
  AMAX: -63.43
  RESPONSE: INTERMEDIATE
MCF7 cells
  ACTIVITY_AREA: 67.04
  AMAX: -63.43
  RESPONSE: INTERMEDIATE
MDA-MB-175-VII (breast)
  ACTIVITY_AREA: 21.43
  AMAX: -47.38
  RESPONSE: INTERMEDIATE
MDA-MB-231 (breast)
  ACTIVITY_AREA: 47.93
  AMAX: -44.39
  RESPONSE: INTERMEDIATE
MDA-MB-415 (breast)
  ACTIVITY_AREA: 19.79
  AMAX: -38.73
  RESPONSE: INTERMEDIATE
MDA-MB-436 (breast)
  ACTIVITY_AREA: 23.24
  AMAX: -4.48
  RESPONSE: REFRACTORY
MDA-MB-453 (breast)
  ACTIVITY_AREA: 54.06
  AMAX: -63.93
  RESPONSE: INTERMEDIATE
MDA-MB-468 (breast)
  ACTIVITY_AREA: 65.45
  AMAX: -47.74
  RESPONSE: INTERMEDIATE
MDA-MB-468 cells
  ACTIVITY_AREA: 65.45
  AMAX: -47.74
  RESPONSE: INTERMEDIATE
MDST8 (large_intestine)
  ACTIVITY_AREA: 21.88
  AMAX: -37.05
  RESPONSE: INTERMEDIATE
[9]
  ACTIVITY_AREA: 41.33
  AMAX: -58.42
  RESPONSE: INTERMEDIATE
[10]
  ACTIVITY_AREA: 20.16
  AMAX: -51.13
  RESPONSE: INTERMEDIATE
MEL-JUSO (skin)
  ACTIVITY_AREA: 85.15
  AMAX: -17.8
  RESPONSE: REFRACTORY
MFE-296 (endometrium)
  ACTIVITY_AREA: 30.54
  AMAX: -63.15
  RESPONSE: INTERMEDIATE
MIA PaCa-2 (pancreas)
  ACTIVITY_AREA: 21.84
  AMAX: -45.2
  RESPONSE: INTERMEDIATE
MKN7 (stomach)
  ACTIVITY_AREA: 17.73
  AMAX: -33.53
  RESPONSE: INTERMEDIATE
MKN-45 (stomach)
  ACTIVITY_AREA: 62.13
  AMAX: -32.27
  RESPONSE: INTERMEDIATE
[11]
  ACTIVITY_AREA: 49.89
  AMAX: -90.98
  RESPONSE: INTERMEDIATE
MV-4-11 cells
  ACTIVITY_AREA: 65.43
  AMAX: -93.67
  RESPONSE: INTERMEDIATE
Malme-3M (skin)
  ACTIVITY_AREA: 11.72
  AMAX: 0.96
  RESPONSE: REFRACTORY
Malme-3M cells
  ACTIVITY_AREA: 11.72
  AMAX: 0.96
  RESPONSE: REFRACTORY
NCI-H28, pleura, NS
  ACTIVITY_AREA: 68.28
  AMAX: -73.22
  RESPONSE: INTERMEDIATE
[12]
  ACTIVITY_AREA: 23.32
  AMAX: -87.52
  RESPONSE: INTERMEDIATE
NCI-H82 cells
  ACTIVITY_AREA: 23.32
  AMAX: -87.52
  RESPONSE: INTERMEDIATE
NCI-H146 cells
  ACTIVITY_AREA: 25.77
